The whole screen tested about 340,000 compounds, of which about 170 (0.05%) were called active. Inconclusive means that the source gave no clear call. Such entries were picked first, then a sample of the others. The call rests on the fitted dose curve; in most records, active means well fitted inhibition curve with a large enough effect in the signal ratio, with a control signal flat (not every such curve was filed as active); inconclusive means small, poorly fitted or top-dose-only effect, or effect the other way, or a change in a side signal; inactive means flat fitted curve, though single readings scatter; the % refers to the signal ratio. Potencies beside an inconclusive call are fits to weak or partial responses and may not hold up.
assay: qHTS Assay to Find Inhibitors of Chronic Active B-Cell Receptor Signaling; conditions: ABC-DLBCL IkBa-CBG/CBR reporter, luminescence ratio (green luciferase fused to IkBa over red control in TMD8 lymphoma cells), 4 h; activity change, negative = inhibition: at 46.1 µM (top of the series);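 on activity change, negative = inhibition: plate controls were basal doxycycline-induced cells for no effect and cells given 10 µM MG132 for full effect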
How it was run: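 TMD8 ABC-DLBCL cells carrying doxycycline-inducible green luciferase fused to IkappaBalpha plus unfused red luciferase were exposed to compounds (up to 46 uM) for 4 hrs at 37C. Activity came from the overlap-corrected green/red luminescence ratio.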
Potency means the concentration at half of the fitted maximal effect.

Row | SMILES | activity change, negative = inhibition | Potency
1 | CCOC(=O)N1CCN(C(=O)CCN2C(=O)COc3ccccc32)CC1 | inconclusive: 5.07% | –
2 | CC(C)(C)c1cc(Cl)ccc1OCCOCCN1CCCC1 | inconclusive: -10% | –
3 | Cc1ccc(-c2nnc(SCC#N)n2N)cc1 | inconclusive: 6.49% | –
4 | COCCn1cc(C(=S)N2CCOCC2)c2ccccc21 | inactive: -7.45% | –
5 | O=[N+]([O-])c1c(Nc2ccc(O)cc2)cc(Cl)c2nonc12 | inconclusive: 16.3% | –
6 | COc1ccccc1C(OC(=O)c1ccco1)C(=O)NC(C)(C)C (stereo not drawn) | inconclusive: 7.76% | –
7 | O=C1/C(=C\c2ccco2)SC(=S)N1C1CCCCC1 | inconclusive: 8.65% | –
8 | O=S(Cc1ccc(Br)cc1)Cc1nnc(SCc2ccc(Br)cc2)n1-c1ccccc1 (stereo not drawn) | inconclusive: -18.6% | –
9 | CC1=CC(=O)C=C(C)C1=NOC(=O)c1cccc([N+](=O)[O-])c1 | inconclusive: -8.05% | –
10 | CCOCCCNc1ccc(-c2ccccc2)nn1 | – | inconclusive: 18.4 µM [falling, single point]
11 | Cn1c(=O)c2c(nc(N3CCc4ccccc4C3)n2Cc2ccc(Br)cc2)n(C)c1=O | inconclusive: 3.65% | –
12 | Cc1nn(-c2ccccn2)c2c1-c1nc(N3CCOCC3)ncc1CC2 | inactive: 6.57% | –
13 | Cc1ccc(C(=O)Nc2nc(-c3ccc([N+](=O)[O-])cc3)cs2)o1 | inconclusive: 8.44% | –
14 | Cc1ccc(-c2nnc(OCC3CCCO3)c3ccccc23)cc1 (stereo not drawn) | inconclusive: -0.0166% | –
15 | N#Cc1ccccc1Cn1cc(/C=C/[N+](=O)[O-])c2ccccc21 | inconclusive: 10.5% | –
16 | COC(=O)c1ccc(C(NC(=O)OCc2ccccc2)/C(F)=C/[C@@H](C)C(=O)NCc2ccc(OC)c(OC)c2)cc1 (stereo partly drawn) | inconclusive: -1.91% | –
17 | COc1cccc(Nc2ncccc2C(=O)Nc2ccccc2)c1 | inconclusive: -10.3% | –
18 | Cc1ccc(C(=O)N/C(=C/c2ccco2)C(=O)NCCc2c[nH]c3ccccc23)cc1C | inconclusive: -18% | –
19 | CCCCN(C)CCCNC(=O)c1cn(CC)c2ccc(S(=O)(=O)N3CCOCC3)cc2c1=O | inactive: 2.53% | –
20 | Cc1ccc2nc(Nc3ccccc3O)nc(-c3ccccc3)c2c1 | inconclusive: 14.1% | –
21 | Oc1ccc(N=Nc2ccc3c(c2)OCCO3)c(O)c1 | inconclusive: -28.7% | –

Row | SMILES | activity change, negative = inhibition | Potency
22 | Cc1cccc(C(=O)N/N=C/c2coc3ccccc3c2=O)c1 | inconclusive: -9.29% | –
23 | CCC(=O)Nc1nc(C)c(-c2csc(Nc3ccc(S(=O)(=O)Nc4cc(C)on4)cc3)n2)s1 | – | inconclusive: 6.51 µM [falling, partial curve, poor fit]
24 | COc1ccc(S(=O)(=O)NCc2cccnc2)cc1OC | inactive: -2.58% | –
25 | COc1ccc(NC(=O)NCCN2CCN(c3ccc(C)cc3)CC2)c(Cl)c1 | inconclusive: 4.58% | –
26 | COc1ccc(S(=O)(=O)N2CCC(C(=O)Oc3ccc(C)cc3)CC2)cc1OC | inactive: 2.15% | –
27 | Cc1ccccc1-n1c(SCc2ccc(Cl)cc2)nc2[nH]ncc2c1=O | – | inconclusive: 22.4 µM [falling, single point]
28 | COc1cccc(/C=N\NC(=O)c2ccc(C)nc2)c1 | inconclusive: 13% | –
29 | C=CCn1c(SCCNC(C)=O)nc2cc(-c3ccccc3)sc2c1=O | inconclusive: -1.7% | –
30 | O=C(O)CSc1ccc(NC(=O)Nc2ccccc2F)cc1 | – | inconclusive: 22.4 µM [falling, partial curve]
31 | Cc1ccc(N2C(=O)C(CC(=O)Nc3cccc(F)c3)N(C3CC3)C2=O)cc1 (stereo not drawn) | inconclusive: 4.09% | –
32 | CC(=O)c1cccc(NC(=O)C2CCCN2S(=O)(=O)c2cccc3cccnc23)c1 (stereo not drawn) | inconclusive: 8.27% | –
33 | O=C(COC(=O)C1CCC1)Nc1ccc(Oc2ccccc2)cc1 | inconclusive: 20.2% | –
34 | COc1ccc(-c2cc(=O)c3cc(C)ccc3[nH]2)cc1 | inactive: 3.39% | –
35 | Cc1ccc2nc3c(cc2c1)c(NC(=O)c1cccnc1)nn3C | inconclusive: -0.0196% | –
36 | CCOC(=O)c1cccnc1SCC(=O)Nc1ccc(C)cc1C | inconclusive: -1.21% | –
37 | CCn1c(SCC(=O)C(C)(C)C)nnc1-c1ccccn1 | inactive: 4.04% | –
38 | CCOc1ccc(NC(=O)Cn2nnc(-c3ccccc3NC(=O)c3cccs3)n2)cc1 | inconclusive: -2.51% | –
39 | Oc1ccc(N=Nc2ccccc2)cc1 | – | inconclusive: 12.6 µM [rising, partial curve, poor fit]
40 | Cc1ccc(NC(=O)CSc2nnc(-c3ccco3)c(-c3ccco3)n2)cc1 | – | inconclusive: 17.8 µM [falling, single point]
41 | COc1cc2[nH]c(-c3ccc(C)cc3)cc(=O)c2cc1OC | inactive: 1.83% | –
42 | CC(C)(C)c1ccc(C(=O)Nc2ccc(NC(=O)C(=O)O)cc2)o1 | inconclusive: -0.715% | –

4 entries from above, reformatted:
Row	SMILES	activity change, negative = inhibition	Potency
22	Cc1cccc(C(=O)N/N=C/c2coc3ccccc3c2=O)c1	inconclusive: -9.29%	–
25	COc1ccc(NC(=O)NCCN2CCN(c3ccc(C)cc3)CC2)c(Cl)c1	inconclusive: 4.58%	–
36	CCOC(=O)c1cccnc1SCC(=O)Nc1ccc(C)cc1C	inconclusive: -1.21%	–
37	CCn1c(SCC(=O)C(C)(C)C)nnc1-c1ccccn1	inactive: 4.04%	–

(more compounds)

Row | SMILES | activity change, negative = inhibition | Potency
43 | Cc1cc(NC(=O)Cn2nnc3sc4c(c3c2=O)CCCC4)no1 | inactive: -0.946% | –
44 | CCOC(=O)N1CCN(c2c(F)cc3[nH]c(=S)[nH]c3c2Br)CC1 | – | inconclusive: 18.4 µM [falling, partial curve]
45 | COc1ccccc1CN1C(=O)CCC1(C)C(=O)NC1CCCCCC1 (stereo not drawn) | inactive: 1.01% | –
46 | CSc1ccc(/C=C/C(=O)c2ccc(O)cc2)cc1 | – | inconclusive: 20.6 µM [falling, partial curve]
47 | Cc1ccc(C)n1-c1c(C(=O)NN)cnn1-c1ccccc1 | inconclusive: -28.3% | –
48 | Cc1ccc2nc(NC(=O)C3CCN(S(=O)(=O)c4cnc[nH]4)CC3)sc2c1 | inconclusive: -0.764% | –
49 | O=C(Nc1ccc2oc(-c3ccccc3F)nc2c1)c1ncn[nH]1 | inconclusive: 18.6% | –
50 | CCCc1cc(-c2nc(-c3ccc(Br)cc3)cs2)ccn1 | inconclusive: 0.754% | –
51 | C/C(=N\NC(=O)CCC(=O)Nc1ccccc1)c1cccs1 | inconclusive: 1.57% | –
52 | CCCCN1C(=O)C2(OCCCO2)c2cccc(C)c21 | inactive: -0.265% | –
53 | Cc1ncc(CN2CCCC(C(=O)Nc3ccc(-c4ccco4)cc3)C2)cn1 (stereo not drawn) | – | inconclusive: 6.31 µM [falling, partial curve]
54 | Cc1ccc(C)c(N2CCN(CCCNC(=O)Cn3cc4c(n3)CCCCC4)CC2)c1 | – | inconclusive: 18.4 µM [falling, partial curve, poor fit]
55 | CCCCn1c(SCC(=O)NC(C)CC)nc2ccc(N3CCOCC3)cc2c1=O (stereo not drawn) | inconclusive: 5.29% | –
56 | CCN(c1ccc(N=Cc2c(O)n(Cc3ccc(OC)cc3)c(=O)c3ccccc23)cc1)C(C)C | inactive: -18.2% | –
57 | CCOC(=O)/C(N=Nc1c(C)n(C)n(-c2ccccc2)c1=O)=C(\C)O | inconclusive: -1.66% | –
58 | CC1CCCCC1NC(=O)CN1c2cccc3cccc(c23)S1(=O)=O (stereo not drawn) | inconclusive: 4.25% | –
59 | CCOC(=O)C(C)Oc1cccc2c(=O)n(CC(=O)NCCc3ccc(OC)c(OC)c3)ccc12 (stereo not drawn) | inconclusive: 2.73% | –
60 | Cc1cc(C(=O)N/N=C/C=C/c2ccc([N+](=O)[O-])cc2)n[nH]1 | inconclusive: -6.07% | –
61 | O=C(Oc1ccc(Cl)c2cccnc12)c1cccc([N+](=O)[O-])c1 | – | inconclusive: 9.2 µM [falling, partial curve, poor fit]
62 | O=S(=O)(Nc1nc2ccc(S(=O)(=O)N3CCCCC3)cc2s1)c1ccccc1 | inconclusive: 5.6% | –
63 | COc1ccc(-c2csc(N(C)C(=O)c3cccs3)n2)cc1 | inconclusive: 19% | –

Row | SMILES | activity change, negative = inhibition | Potency
64 | CC(=O)Nc1ccc(NCC(O)COc2ccccc2)cc1 (stereo not drawn) | inactive: -4.03% | –
65 | Cc1cc(C)c(S(=O)(=O)/N=C2/C=C(SCC(=O)O)C(=O)c3ccccc32)cc1C | – | inconclusive: 22.4 µM [falling, single point]
66 | Clc1ccccc1CN1CCN(/N=C/c2ccncc2)CC1 | inactive: 0.333% | –
67 | CCCCNC(=O)c1cccc(C(=O)NCCCC)c1 | inconclusive: -1.06% | –
68 | COC1(C2=NCCN2)COc2ccccc2O1 (stereo not drawn) | inconclusive: 25.7% | –
69 | O=c1c2ccccc2nc(-c2ccc(Cl)c(Cl)c2)n1O | – | inconclusive: 25.9 µM [falling, single point]
70 | CC(=O)Nc1ccc(C(=O)CSc2nccc(=O)[nH]2)cc1 | – | inconclusive: 14.1 µM [falling, single point]
71 | CC1CCCCN1CCNC(=O)c1ccc2c(c1)N(Cc1ccccc1F)C(=O)c1ccccc1S2=O (stereo not drawn) | inconclusive: -6.24% | –
72 | COc1ccc(/C=N/Nc2nc(Nc3ccccc3)nc(N3CCCC3)n2)cc1 | inconclusive: 1.19% | –
73 | CC1=CC=CC2=NC(=O)CC(C)(C(=O)N(CC(=O)NC3CCCC3)c3ccccc3C)N12 (stereo not drawn) | inconclusive: 16.8% | –
74 | COc1cccc(NC(=O)c2cccc(OC)c2OC)c1 | inconclusive: 6.23% | –
75 | COC(=O)C(NC(=O)CCc1c(C)nc2c(c(C)nn2-c2ccccc2)c1C)C(C)C (stereo not drawn) | – | inconclusive: 35.5 µM [falling, single point]
76 | Cc1ccc(C(=O)NNC(=O)c2ccccc2OCc2c(C)noc2C)cc1 | inconclusive: -0.273% | –
77 | O=C(CSc1nnc(-c2ccccc2)o1)OCc1ccccc1 | – | inconclusive: 11.2 µM [rising, partial curve, poor fit]
78 | C=CCN(CC=C)S(=O)(=O)c1ccc(NC(=S)NC(=O)/C=C/c2ccccc2)cc1 | inconclusive: 4.4% | –
79 | CNS(=O)(=O)c1cn(CC(=O)N(C)Cc2ccccc2)cc1S(=O)(=O)NC | inactive: -1.75% | –
80 | O=C(COC(=O)c1cc(-c2ccc(Cl)s2)nc2ccccc12)NCc1ccco1 | – | inconclusive: 5.17 µM [rising, full curve]
81 | O=C(CCN1C(=O)c2ccccc2C1=O)Nc1cccc(O)c1 | inactive: 4.24% | –
82 | CC(C)Cc1csc(NC(=O)c2ccc(Br)cc2)c1C(=O)O | inconclusive: 439% | –
83 | NS(=O)(=O)c1ccc(CCNC(=O)C2CCC(CNS(=O)(=O)c3ccc(Br)s3)CC2)cc1 (stereo not drawn) | – | inconclusive: 14.1 µM [rising, partial curve, poor fit]

From PubChem BioAssay AID493014 (National Center for Advancing Translational Sciences (NCATS), 2011)
